From patent publication US20200113920A1, “COMPOSITIONS AND METHODS FOR TREATMENT OF MICROSPORIDIA INFECTION USING PROTEASOME INHIBITORS INCLUDING IXAZOMIB” (BARNARD COLLEGE, priority 2018, published 2020)
Where a name gives a salt, the structure may show the parent alone. At least one compound was matched to its structure with a doubt left.

Tested on: N. ceranae
Experiment: N. ceranae infection in newly eclosed, experimentally infected honey bees fed proteasome inhibitors (spore counting and quantitative PCR)
Format: in vivo, Nosema ceranae
Source text: To standardize experiments by using age-matched bees and to allow for longer treatment periods, we used newly enclosed bees and tested the effects of a number of commercially available proteasome inhibitors, including Ixazomib (MLN2238) (purchased from Selleck Chemicals), Ixazomib citrate (MLN9708) (purchased from Selleck Chemicals), Oprozomib (ONX 0912) (purchased from Selleck Chemicals), Dexazomib (purchased from Selleck Chemicals), Carfilzomib (purchased from Selleck Chemicals), Bortezomib (purchased from Selleck Chemicals), Epoxomicin (purchased from Selleck Chemicals), HMB-Val-Ser-Leu-VE (purchased from Cayman Chemical), MG-262 (purchased from APExBIO), and the two stereoisomers of MG132 (S and R) (purchased from Cayman Chemical) as well as Fumagillin (purchased from Selleck Chemicals). […] After 4 days of drug feeding, honey bee midguts were dissected, and infection levels were assessed by spore counting and quantitative PCR.
We focused on ixazomib and ixazomib citrate for further experiments. Again using newly eclosed bees, we treated infected bees for up to eight days with ixazomib, Fumagillin, or sucrose solution alone, and measured infection level by spore counting and DNA on days 4 and 8 post initiation of treatment (FIGS. 4A and 4B). […] We then switched all cages to sucrose solution alone for 4 days and then measured infection level by spore counting and DNA. […]

With CC(C)C[C@H](NC(=O)CNC(=O)c1cc(Cl)ccc1Cl)B1OC(=O)C(CC(=O)O)(CC(=O)O)O1 [Ixazomib citrate] the “N. ceranae infection intensity by spore counting and DNA analysis” value (2.5 μM) was “diminished, but still robust, reduction in infection intensity” and the “infection intensity after cessation of treatment (rebound)” value (four days treatment, then sucrose solution alone for 4 days, spore counting and DNA) was “decreased”.
